Experimental data published in the supplement of paper PMC5949888.
Most values lie at the floor of the assay. Slopes are relative: functional sequences can read slightly below zero.

Tested on: Saccharomyces cerevisiae PS128 hsf1 delta, HSF1(1-493) fusion
Assay: growth estimate (transactivation domain function in HSF1 fusion, heat-shock survival) (a.u. (slope of normalised read count over time)); higher = stronger growth at 37°C, i.e. more transactivation activity
Settings: library: random library

| Substance | growth estimate |
| --- | --- |
| GKCPNPR | < -0.25 |
| PGAFDSDVFCFWRRTYFGVD | < -0.25 |
| MTAMSNPN | < -0.25 |
| IHGHHKKVCLINSVGIYSYR | < -0.25 |
| NRSGYRLGWLHIGDRNMIHV | < -0.25 |
| DWGQCTVHMRCSETTESACR | < -0.25 |
| HIEGPRWMLKNNRCSIT | < -0.25 |
| KMIAGERY | < -0.25 |
| KIGRIELLGSARRR | -0.245 |
| AIISRGGDRHR | < -0.25 |
| HVEGLGVIVLRPHADWVQQR | < -0.25 |
| RTAPRTHRRNLAIDALHALS | < -0.25 |
| VYCPTES | < -0.25 |
| GVGVGRRWCQLS | < -0.25 |
| LRRHDRGQGCWQWRYR | < -0.25 |
| LYLSFKSC | < -0.25 |
| RAQFAHIGASVSKALRGVPP | -0.246 |
| RITYDRLAVSRKARG | < -0.25 |
| LICYLVKENNLAGHQERVGP | < -0.25 |
| RYKREPPEYYLEHHIIYVLH | < -0.25 |
| LSRARGDTR | < -0.25 |
| LPSTRRVTAGVVKYCRTGRI | < -0.25 |
| LCSMRCWNTEV | < -0.25 |

| Substance | growth estimate |
| --- | --- |
| LIPGPGVCCELGQNARYIAP | < -0.25 |
| TGRSFARDVTVGRFTYVAVR | < -0.25 |
| CRIVTYIRQYLC | < -0.25 |
| RVCGFKDVF | < -0.25 |
| MLTCSRGLSLNLFTPTINKS | < -0.25 |
| DLSSLWGLITCRTVSVENRV | < -0.25 |
| WSVSSSS | < -0.25 |
| EGYRMPAALLSSDIRGGVRS | < -0.25 |
| LSQSGGFRGVLTSQEGVQLP | -0.243 |
| TKCRH | < -0.25 |
| PFLVFAGYPPHDNGDSFGTW | < -0.25 |
| QIFTVMTATRGVS | < -0.25 |
| REKTEGIGGRFPF | < -0.25 |
| VSVRLGSMWHRHTLRVFGLV | < -0.25 |
| GDSNKK | < -0.25 |
| RDGPTGHVWRRPLDGVEWAY | -0.217 |
| MIRVRDACCL | < -0.25 |
| GMVTMNYGDL | < -0.25 |
| CVLWFSEQTMRYGAILLDDG | < -0.25 |
| RGNHQTDGDTHYGSNLFNQV | < -0.25 |
| ARSP | < -0.25 |
| FRIRAVRI | < -0.25 |
| KRQTSISGWGANRARRTCGL | < -0.25 |

| Substance | growth estimate |
| --- | --- |
| TPLYVVLQL | < -0.25 |
| VQLLIGHT | < -0.25 |
| FWGRLPYEESHIR | < -0.25 |
| ERVEKIIGPSCKLYAICRLA | < -0.25 |
| HRAMEDGTTKCYRRAHPPLA | < -0.25 |
| ERTSLAAYGSISSPCDGRV | -0.0254 |
| ESRMRANDTSRTLIRLIDVC | < -0.25 |
| PPPIGISHDVHLMQWSNSG | < -0.25 |
| KSIDCKVGLRHDSRTEI | < -0.25 |
| PHSINLVVRVGFITVSSVRT | < -0.25 |
| TWVVGRAYAGSHLMFTCITS | < -0.25 |
| VLVTFFVNWKRSSTNLSQRP | < -0.25 |
| LLGISDRSSPCFA | < -0.25 |
| LERWTLTYWVSILRLLRRPT | < -0.25 |
| CCKSAHK | < -0.25 |
| SSVDGGG | < -0.25 |
| PVKRCRGVAGAVTGGNHGAQ | < -0.25 |
| SWPKAHWSFGPACWSGWQAV | < -0.25 |
| VETVGTTDLTYRALVKRRLW | < -0.25 |
| IPTVASKCQP | < -0.25 |
| YFYTQRSEQRYSACQCKNRV | < -0.25 |
| LRSPVVSSR | < -0.25 |
| TETRHLTEMSRSNHLMRSP | < -0.25 |

| Substance | growth estimate |
| --- | --- |
| NLRS | < -0.25 |
| LRAHIKGRSTNLV | < -0.25 |
| SSNGFDLGSDVHHCTCI | < -0.25 |
| FDPSNSTGPFGNLRPRCIGR | < -0.25 |
| TMV | < -0.25 |
| GRSIKCPA | < -0.25 |
| ILCLLTVRIISHKFEACTTA | < -0.25 |
| SRLILSIYWELGL | < -0.25 |
| DSPSSSGESVLQRA | < -0.25 |
| RHTCQALLPYA | < -0.25 |
| QRSLRRCKIYLWYRAERHVA | -0.237 |
| IESPPPAEEN | < -0.25 |
| SCDP | < -0.25 |
| LVCGSQYSQYGFPMFCLNTA | < -0.25 |
| VGRRAYKRKDW | < -0.25 |
| SSGPQGLRGHVPRAVISCGM | < -0.25 |
| GLNGRVKLEGPAS | < -0.25 |
| GPCWASKRLTNVAMISLWVR | < -0.25 |
| MGYVKQTETGKASLILVMAD | -0.231 |
| TAQQCYLEARPARRARKVEI | < -0.25 |
| VPVVSVVRKVSIFRLLSNGQ | < -0.25 |
| SFT | < -0.25 |
| HWSGIRLYVEE | -0.25 |

| Substance | growth estimate |
| --- | --- |
| VEGLGATGTRWYG | < -0.25 |
| NLLRDDSAERSQPRQFWTVR | -0.234 |
| GGERAVIRMLIPSNMSHNRR | -0.246 |
| AGGR | < -0.25 |
| ISDKFLV | < -0.25 |
| SGVRWVVRS | < -0.25 |
| TRTPPAGNGGKSTPGQI | < -0.25 |
| SGSQTTCVEGTTLSDSSATP | < -0.25 |
| SVHSST | < -0.25 |
| TIEFSVKYTCLPPHSVVVSC | < -0.25 |
| WEATGISSGLVSVY | -0.231 |
| SGIERRCL | -0.246 |
| STPLSREQTRVWRFADRNLL | < -0.25 |
| CCWCARAALQPD | < -0.25 |
| AADG | < -0.25 |
| RRCIVSGSSSSEVPAVGARQ | < -0.25 |
| GQETRTREVWRIKDSINRLR | < -0.25 |
| GALSC | 0.128 |
| GAWVRLEG | < -0.25 |
| IFVGWVGYVKYESKEHSCTQ | -0.221 |
| RSLRTIVGAIISGTHEH | < -0.25 |
| TGKCGASRSRWSGGAYSFSN | < -0.25 |
| LLKRKTEVVTGGLNH | < -0.25 |

An excerpt of these results, with tabs.
Substance	growth estimate
VEGLGATGTRWYG	< -0.25
SVHSST	< -0.25
RRCIVSGSSSSEVPAVGARQ	< -0.25
IFVGWVGYVKYESKEHSCTQ	-0.221
RSLRTIVGAIISGTHEH	< -0.25
TGKCGASRSRWSGGAYSFSN	< -0.25

Next entries follow.

| Substance | growth estimate |
| --- | --- |
| SWALCFL | < -0.25 |
| ADRLGPCNDPRRNLCRCGIP | < -0.25 |
| LSKRSNVHSRWGGTPGDLIT | < -0.25 |
| PGAESLQKIRVRAWVLAVYR | < -0.25 |
| FNQADCTEL | < -0.25 |
| HVTLALITYDSSQKVALVT | < -0.25 |
| NGHVKKPFVYNIQGAVLAAV | < -0.25 |
| NDTAGTCGCYEGGRSAVFFA | < -0.25 |
| RAWAVHHRTLWLECVGTGLD | < -0.25 |
| CDALST | < -0.25 |
| HFHGMLGFGR | < -0.25 |
| LLSSHLLPGRIMVQAGE | -0.235 |
| LLLANLNSLQDRQAQRVIGG | < -0.25 |
| CWVFIT | < -0.25 |
| KLTPRGLT | < -0.25 |
| APYGVGMS | < -0.25 |
| RSAYGIAAERPCAGCTGRKQ | < -0.25 |
| PVQLQRRPDTTGRPAQTTT | < -0.25 |
| TNGLLWYSRTCLRSHPSSAV | < -0.25 |
| IAANSW | < -0.25 |
| MGRDELRRSTGMVPIVDYYG | < -0.25 |
| LSQ | < -0.25 |
| FGSRHWEPVCSVRVERL | < -0.25 |

Reprinted from the listing (2 entries):

| Substance | growth estimate |
| --- | --- |
| VGRRAYKRKDW | < -0.25 |
| SSGPQGLRGHVPRAVISCGM | < -0.25 |

Going on with the list.

| Substance | growth estimate |
| --- | --- |
| LRRPERLLSIIISTTSV | < -0.25 |
| GDLRFANGATCNVG | < -0.25 |
| RTTVNRRAWTRFRKSTYLGR | < -0.25 |
| LRAASCSHSVVRGSLTCLLG | < -0.25 |
| KRADCYGALTVRRIGCPPPR | < -0.25 |
| LRSHVGWAEGYRSETIAVHV | < -0.25 |
| LYRTYQRRGYIWVSHNSCVY | < -0.25 |
| GRLQL | < -0.25 |
| SRHTYPKVVQDP | < -0.25 |
| VKVRYLMCYRGY | < -0.25 |
| NSL | < -0.25 |
| GGGAVWS | < -0.25 |
| YSSTMQSTH | < -0.25 |
| GQRGKPQRNIAGL | < -0.253 |
| LLMTSDRHGVSEANGTVQRA | < -0.25 |
| KVGRRSG | < -0.25 |
| ARLPVLEVARVLKRGWSRAP | < -0.25 |
| GSCPTTVFA | < -0.25 |
| IKTRVQRDRNRSSRICDQVC | < -0.25 |
| AGVPEELLGDRNRGSFRGAC | < -0.25 |
